Reference: the supplement of paper PMC10849652
The list shows a part of the results.

Amino acid sequences for entries named in this document (tags omitted).
UniProt Q8WVM8, whole entry, looked up: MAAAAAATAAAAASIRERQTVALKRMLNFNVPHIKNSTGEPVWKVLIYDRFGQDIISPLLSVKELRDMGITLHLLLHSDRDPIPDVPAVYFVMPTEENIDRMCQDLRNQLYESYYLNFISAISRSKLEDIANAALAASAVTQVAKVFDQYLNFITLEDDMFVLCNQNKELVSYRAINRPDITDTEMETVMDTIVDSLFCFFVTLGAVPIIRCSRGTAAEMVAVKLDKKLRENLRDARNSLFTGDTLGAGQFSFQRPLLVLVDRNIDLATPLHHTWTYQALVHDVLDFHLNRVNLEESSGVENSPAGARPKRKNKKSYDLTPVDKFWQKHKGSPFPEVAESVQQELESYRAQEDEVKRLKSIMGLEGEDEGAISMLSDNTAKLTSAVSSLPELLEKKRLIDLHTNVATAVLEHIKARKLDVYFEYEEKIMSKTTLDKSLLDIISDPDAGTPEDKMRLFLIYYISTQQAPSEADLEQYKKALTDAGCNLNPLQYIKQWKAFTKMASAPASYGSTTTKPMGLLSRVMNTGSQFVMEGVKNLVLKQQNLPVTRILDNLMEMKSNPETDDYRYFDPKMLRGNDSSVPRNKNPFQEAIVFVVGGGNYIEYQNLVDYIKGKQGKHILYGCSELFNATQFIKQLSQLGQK

How the values were obtained:
Assay in all cases: log2 fold change, soluble protein after heating vs DMSO (PISA); higher = thermal stabilisation; K562 cells, 10 uM, 30 min; active = over 0.2 and 3.5 SD of the protein, either way, in both replicates (recomputed)
[1] = compound: C1=CC=C(C=C1)[C@H](COC2=CC3=C(C=C2)NC(=O)N3)NC(=O)C4=CC=CN(C4=O)CC5=CC(=C(C=C5)F)F
In short: (§1)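 Thermal stability values are relative to control samples and come from duplicates. They are expressed as log2 fold changes. For measurement, K562 cells (2×10^6 cells/mL) received 10 μM compound for 30 min, and aliquots were heated for 3 min over 48°C-58°C, pooled, and extracted at 4°C in PBS with 0.5% NP-40. Soluble protein, the supernatant after 21,000xg for 90 min, was quantified by TMTpro 16plex LC-MS/MS with equalised channel sums.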

[2] = compound: CC1=C(SC2=C1C(=N[C@H](C3=NN=C(N32)C)CC(=O)N)C4=CC=C(C=C4)Cl)C
In short: as §1

[3] = compound: CC1=C2C(=CC=C1)N=C(N(C2=O)C3=CC=CC=C3C)CN4C=NC5=C(N=CN=C54)N
In short: as §1

[4] = compound: Cc1sc2c(c1C)C(c1ccc(Cl)cc1)=N[C@@H](CC(=O)OC(C)(C)C)c1nnc(C)n1-2
In short: as §1

[5] = compound: c1ccc([C@@H]2C[C@H]2NC2CCNCC2)cc1
In short: as §1

Measured: log2 fold change

SCFD1 (UniProt Q8WVM8)
inactive: [1] -0.034 | [2] 0.009 | [3] 0.039 | [4] 0.025 | [5] -0.024
